From US20150056210A1
These are yes or no findings as the source states them, for the method shown. Some entries that bind do so weakly or less than the wild type. Sequences can lack the tags named with a protein. Each block holds one binder with its values, some of them ahead of it.

What was measured:
[1] = target: T1, ADAMTS-5 3×FLAG full length (human) (UniProt Q9UNA0); experiment: sandwich ELISA, antibody coated at 2 µg/mL, purified ADAMTS-5 at 4 µg/ml, anti-FLAG detection
T1 sequence: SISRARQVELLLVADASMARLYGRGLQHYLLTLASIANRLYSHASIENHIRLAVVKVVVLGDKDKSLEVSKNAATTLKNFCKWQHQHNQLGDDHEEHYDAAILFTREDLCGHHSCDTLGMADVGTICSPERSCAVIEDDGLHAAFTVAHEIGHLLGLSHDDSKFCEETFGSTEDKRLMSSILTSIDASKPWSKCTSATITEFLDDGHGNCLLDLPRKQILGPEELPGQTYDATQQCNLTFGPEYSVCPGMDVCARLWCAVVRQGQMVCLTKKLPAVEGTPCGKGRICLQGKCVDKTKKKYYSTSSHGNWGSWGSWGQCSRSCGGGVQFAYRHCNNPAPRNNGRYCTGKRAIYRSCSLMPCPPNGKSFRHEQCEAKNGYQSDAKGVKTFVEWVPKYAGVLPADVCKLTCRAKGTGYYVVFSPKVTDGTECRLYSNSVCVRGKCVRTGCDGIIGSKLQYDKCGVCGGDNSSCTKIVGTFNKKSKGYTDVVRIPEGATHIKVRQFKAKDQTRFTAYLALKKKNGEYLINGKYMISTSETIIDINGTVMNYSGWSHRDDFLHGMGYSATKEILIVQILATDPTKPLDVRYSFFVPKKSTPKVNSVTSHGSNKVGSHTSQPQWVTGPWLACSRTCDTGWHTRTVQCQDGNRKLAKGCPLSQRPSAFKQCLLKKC

[2] = target: T2, ADAMTS-4 3×FLAG full length (human) (UniProt O75173); experiment: immunoprecipitation of 0.2 µg TS4-FL with 30 and 60 µg antibody, anti-FLAG immunoblot
T2 sequence: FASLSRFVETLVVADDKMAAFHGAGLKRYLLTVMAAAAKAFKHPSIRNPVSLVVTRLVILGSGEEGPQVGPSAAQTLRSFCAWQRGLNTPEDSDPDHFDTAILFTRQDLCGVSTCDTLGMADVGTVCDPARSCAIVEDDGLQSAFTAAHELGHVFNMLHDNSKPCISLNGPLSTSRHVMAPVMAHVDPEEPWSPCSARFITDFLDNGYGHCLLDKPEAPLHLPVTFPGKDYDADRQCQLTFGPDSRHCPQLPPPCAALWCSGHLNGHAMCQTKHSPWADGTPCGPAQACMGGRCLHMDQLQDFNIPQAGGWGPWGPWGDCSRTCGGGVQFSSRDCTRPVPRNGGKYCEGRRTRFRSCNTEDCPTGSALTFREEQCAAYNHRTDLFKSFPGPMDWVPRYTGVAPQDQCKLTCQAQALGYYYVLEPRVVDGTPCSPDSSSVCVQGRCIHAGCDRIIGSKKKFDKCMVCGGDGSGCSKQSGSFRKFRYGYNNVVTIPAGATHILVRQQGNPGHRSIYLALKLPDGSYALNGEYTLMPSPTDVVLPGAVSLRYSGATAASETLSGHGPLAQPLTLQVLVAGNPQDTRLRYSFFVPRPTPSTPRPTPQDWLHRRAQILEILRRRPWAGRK

[3] = target: T1, ADAMTS-5 3×FLAG full length (human); experiment: cell ELISA on FreeStyle 293-F cells stably expressing ADAMTS-5 3×FLAG
[4] = target: T2, ADAMTS-4 3×FLAG full length (human); experiment: immunoprecipitation with Protein G, anti-FLAG immunoblot
[5] = target: T1, ADAMTS-5 3×FLAG full length (human); experiment: as above
[6] = target: T1, ADAMTS-5 3×FLAG full length (human); experiment: cell ELISA on FreeStyle 293-F cells stably expressing ADAMTS-5 3×FLAG, antibody at 10-5-2 µg/ml
[7] = target: T1, ADAMTS-5 3×FLAG full length (human); experiment: sandwich ELISA, antibody coated at 2 µg/mL, conditioned medium, anti-FLAG detection
[8] = target: T1, ADAMTS-5 3×FLAG full length (human); experiment: immunoprecipitation of 0.1 µg TS5-FL with 11, 22 and 25 µg antibody, anti-FLAG immunoblot

B2: CRB0017_IgG4 (antibody, V domains shown)
VH: QVQLQQSGAELAKPGASVKMSCKASGYTFTSYWMHWVKQRPGQGLEWIGYINPSTGYTEYNQKFKDKATLTADKSSSTAYMQLGSLTSEDSAVYYCARGGYDDLGYWGQGTTLTVSS
VL: DIVITQDELSNPVTSGESVSISCRSSKSLLYKDGKTYLYWFLQRPGQSPQLPIYLMSTRASGVSDRFSGSGSGTDFTLEISRVKAEDVGVYYCQQLVEYPYTFGGGTKLEIK
binding [2]: binds | binding [3]: binds | binding [4]: binds | binding [5]: binds | binding [6]: binds | binding [7]: binds | binding [8]: binds | binding [1]: binds

B3: CRB0094_IgG4 (antibody, V domains shown)
VH: QVQLQQWGAGLLKPSGTLSLTCAVYGGSFSGYYWSWIRQPPGKGLEWIGEINHSGSTNYNPSLKSRVTISVDTSKNQFSLKLSSVTAADTAVYYCARTIWSTRHDFWSGYYSSNWFDPWGQGTLVTVSS
VL: QSVLTQPPSASGSPGQSVTISCTGTSSDVGGYNYVSWYQQHPGKAPKLLIYDVSNRPSGVSSRFSGSKSGNSASLTISGLQAEDEADYYCSSYTRRSTLEFGGGTKLTVL
binding [1]: binds

Second part, the binder after the results:

binding [1]: binds
B1: CRB0124_IgG4 (antibody, V domains shown)
VH: QVQLVQSGSDVKKPGASVRVSCKVSGYRLTEYPIHWVRQAPGKGLEYMGGFDLENGVTKAAPRFRGRFTMTEDTSTDSVYMELKSLTSEDTAVYYCVKGPGYGALVTSFTSWGLGTTVTVSS
VL: SYVLTQPPSVSVSPGQTASITCSGDKLEDKYACWYQQKPGQSPVLVIYHDYKRPSGIPERFSGSNSGNTATLTISRVEGGDEADYYCQVWDSGSDDQVFGGGTKLTVL

binding [1]: binds
B4: CRB0123_IgG4 (antibody, V domains shown)
VH: QVQLQESGGGVVQPGRSLRLSCAASGFTFSGYGMNWVRQAPGTGLEWVATISFDGTDKYYADSVKGRFTISRDNAENTLYLQMNSLRAEDMAVYYCARDWSYAMDVWGQGTMVTVSS
VL: DIQMTQSPSSVSASVGDRVTITCRPSQGIGKYSAWYQQKPGKAPELPIYLASTLQSGVPSRFSDSGSGTEFTLTISSLQPEDFATYYCLQRNTYPWTFGQGTKVEIK
